Some of these results come from one statement about several compounds together.
System: OD26749 primary human non-small cell lung cancer xenografts
Assay: Primary NSCLC xenograft, dose schedule in combination with cisplatin
Type: in vivo, SCID mice
Settings: agent given alone
Excerpt: This contrasts with the effects of either agent given alone, where neither Compound A-2the nor cisplatin had any meaningful impact on tumor growth (≤10% tumor growth inhibition).

Q: How did the Tumor growth inhibition turn out when `CNCc1ccc(-c2cc(-c3nc(-c4ccc(S(=O)(=O)C(C)C)cc4)cnc3N)on2)cc1` [Compound A-2] was run?
A: ≤ 10%
